Results deposited as PubChem BioAssay AID652243 (Drosophila RNAi Screening Center, 2013)

Aim: 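Knock-downs that decrease or increase androgen receptor reporter signal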 (primary screen)
Cell system: Drosophila S2R+ cells
Reagents: long dsRNA against Drosophila genes
Time to read-out: 72 h (48 h, then 24 h hormone)
Treatment: synthetic androgen R1881 at 10 nM for 24 h
Read-out: 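Firefly light from an androgen-responsive reporter and Renilla control light per well, raw and unnormalised, for each of two replicates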
Scale: firefly reporter light: higher = more light from androgen-responsive reporter; Renilla control light: higher = more constitutive control signal (cell number, transfection)
Active means: 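Hit when the log firefly-to-Renilla ratio dropped or increased by a fixed fold versus the mean of GFP or LacZ controls across duplicate plates; lowering cut given as 1.5 and as 3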
Calls: active = hit: reporter lowered or raised; inactive = no hit
In all, the deposit lists about 24,000 reagents; shown is an unselected part of those with a known target gene and a result. In the full data, 246 (1%) are marked active. 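Plates not normalised; calls are printed but the firefly/Renilla ratio behind them is not deposited; fold cut for lowering reported inconsistently.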 Raw values are not corrected between plates. A plus sign joins genes that one reagent is predicted to hit. Reagent sequences are not shown. Not stated in the record: the amount of reagent.

gene | PubChem SID | firefly reporter light, replicate 1 | firefly reporter light, replicate 2 | Renilla control light, replicate 1 | Renilla control light, replicate 2 | Outcome
Ae2 (GeneID 39147) | SID104188789 | 1.40e5 | 2.06e5 | 1.72e6 | 2.90e6 | active
Ae2 (GeneID 39147) | SID104190761 | 9.25e5 | 9.00e5 | 1.10e6 | 1.41e6 | inactive
RyR (GeneID 49090) | SID104187335 | 2.80e5 | 2.41e5 | 1.87e6 | 1.27e6 | inactive
trn (GeneID 39491) | SID104191199 | 2.27e5 | 3.08e5 | 2.50e6 | 2.43e6 | inactive
Klf15 (GeneID 31410) | SID104197534 | 1.96e5 | 2.28e5 | 2.56e6 | 2.51e6 | inactive
Corp (GeneID 31764) | SID104197563 | 1.44e5 | 1.17e5 | 9.26e5 | 9.11e5 | inactive
Corp (GeneID 31764) | SID104203303 | 4.80e5 | 3.89e5 | 6.41e5 | 4.66e5 | inactive
CG3199 (GeneID 41725) | SID104195259 | 2.06e5 | 1.28e5 | 2.66e6 | 1.92e6 | inactive
CG3199 (GeneID 41725) | SID104208604 | 9.85e5 | 8.82e5 | 1.46e6 | 9.61e5 | inactive
Gr28b (GeneID 117496) | SID104182083 | 1.96e5 | 1.84e5 | 1.86e6 | 1.83e6 | inactive
Gr28b (GeneID 117496) | SID104182084 | 1.64e5 | 1.71e5 | 1.25e6 | 1.08e6 | inactive
Gr28b (GeneID 117496) | SID104208003 | 7.16e5 | 6.15e5 | 1.14e6 | 1.14e6 | inactive
Ns3 (GeneID 31097) | SID104198399 | 7.15e5 | 7.22e5 | 1.82e6 | 1.56e6 | inactive
Ns3 (GeneID 31097) | SID104204391 | 3.27e5 | 2.96e5 | 7.86e5 | 7.22e5 | inactive
CG31740 (GeneID 261618) | SID104181411 | 1.58e5 | 1.49e5 | 5.50e5 | 6.07e5 | inactive
CG15199 (GeneID 32051) | SID104199438 | 6.69e5 | 4.58e5 | 3.76e6 | 3.03e6 | inactive
fuss (GeneID 43835) | SID104196992 | 2.90e5 | 3.47e5 | 4.68e6 | 4.09e6 | inactive
fuss (GeneID 43835) | SID104201193 | 1.24e5 | 1.07e5 | 8.76e5 | 8.42e5 | active
CG4704 (GeneID 42706) | SID104195420 | 1.71e5 | 2.16e5 | 2.04e6 | 2.44e6 | inactive
plh (GeneID 40615) | SID104192086 | 69527 | 73946 | 1.51e6 | 1.95e6 | inactive
Chc (GeneID 32537) | SID104200021 | 90406 | 1.09e5 | 5.93e5 | 8.15e5 | inactive
l(3)05822 (GeneID 47260) | SID104195994 | 1.04e5 | 1.23e5 | 1.05e6 | 1.06e6 | inactive
l(3)05822 (GeneID 47260) | SID104203361 | 4.20e5 | 2.63e5 | 4.45e5 | 5.18e5 | inactive
CG9988 (GeneID 43388) | SID104196379 | 2.71e5 | 1.97e5 | 1.29e6 | 1.30e6 | inactive
Gp150 (GeneID 37549) | SID104184410 | 8.84e5 | 7.88e5 | 2.92e6 | 3.15e6 | inactive
Gp150 (GeneID 37549) | SID104207577 | 5.04e5 | 6.01e5 | 1.21e6 | 1.31e6 | inactive
Gp150 (GeneID 37549) | SID104214596 | – | – | – | – | inactive
CG31296 (GeneID 318668) | SID104192884 | 67333 | 72076 | 96659 | 1.44e5 | inactive
CG4250 (GeneID 37599) | SID104184247 | 1.32e5 | 1.88e5 | 1.07e6 | 1.38e6 | inactive
CG15728 (GeneID 32214) | SID104199486 | 4.51e5 | 4.93e5 | 3.00e6 | 3.02e6 | inactive
CG15728 (GeneID 32214) | SID104202227 | 3.58e5 | 7.80e5 | 1.09e6 | 1.66e6 | inactive
CG15728 (GeneID 32214) | SID104207206 | 3.64e5 | 3.31e5 | 1.43e6 | 1.18e6 | inactive
Arglu1 (GeneID 34320) | SID104182701 | 2.10e5 | 2.64e5 | 1.82e6 | 1.40e6 | inactive
Arglu1 (GeneID 34320) | SID104207380 | 4.53e5 | 2.50e5 | 1.58e6 | 1.46e6 | inactive
scaf6 (GeneID 3346235) | SID104189867 | 94367 | 1.43e5 | 7.34e5 | 7.06e5 | inactive
scaf6 (GeneID 3346235) | SID104190468 | 4.02e5 | 3.04e5 | 2.52e6 | 2.18e6 | inactive
CG5910 (GeneID 40264) | SID104191578 | 2.73e5 | 1.69e5 | 2.80e6 | 1.44e6 | inactive

As entered above.
Result for Corp (GeneID 31764) [SID104203303] in “firefly reporter light, replicate 1”: 4.80e5
CG4250 (GeneID 37599) [SID104184247], Renilla control light, replicate 2: 1.38e6
Result for Gp150 (GeneID 37549) [SID104207577] under “Renilla control light, replicate 2”: 1.31e6
Under “firefly reporter light, replicate 2”, Gp150 (GeneID 37549) [SID104184410] reads 7.88e5
Entry for plh (GeneID 40615) [SID104192086] under “firefly reporter light, replicate 1”: 69527
Gr28b (GeneID 117496) [SID104208003], firefly reporter light, replicate 1 → 7.16e5

More records follow.
gene | PubChem SID | firefly reporter light, replicate 1 | firefly reporter light, replicate 2 | Renilla control light, replicate 1 | Renilla control light, replicate 2 | Outcome
CG16721 (GeneID 31520) | SID104197905 | 1.03e5 | 87488 | 8.46e5 | 6.03e5 | inactive
SrpRalpha (GeneID 47251) | SID104200043 | 89226 | 76158 | 4.35e5 | 3.68e5 | inactive
CG33771 (GeneID 3772424) | SID104191510 | 4.70e5 | 3.86e5 | 2.11e6 | 3.28e6 | inactive
Myc (GeneID 31310) | SID104202711 | 6.11e5 | 5.02e5 | 1.79e5 | 1.86e5 | inactive
CG17198 + CG17197 | SID104194982 | 1.98e5 | 1.86e5 | 2.43e6 | 2.53e6 | inactive
CG17198 + CG17197 | SID104194983 | 1.90e5 | 2.49e5 | 2.07e6 | 1.86e6 | inactive
Ank2 (GeneID 38863) | SID104188686 | 1.76e5 | 1.60e5 | 3.98e5 | 3.42e5 | inactive
Ank2 (GeneID 38863) | SID104189458 | 2.04e5 | 2.28e5 | 2.08e6 | 2.90e6 | inactive
Ank2 (GeneID 38863) | SID104190130 | 1.19e5 | 1.50e5 | 1.11e6 | 1.36e6 | inactive
Ank2 (GeneID 38863) | SID104191070 | 1.60e5 | 1.53e5 | 1.81e6 | 1.53e6 | inactive
Ank2 (GeneID 38863) | SID104202279 | 6.25e5 | 1.39e6 | 1.44e6 | 2.60e6 | inactive
Ank2 (GeneID 38863) | SID104208365 | 3.55e5 | 3.61e5 | 1.19e6 | 1.33e6 | inactive
CG7191 (GeneID 34058) | SID104182814 | 2.63e5 | 2.30e5 | 2.15e6 | 1.83e6 | inactive
CG7191 (GeneID 34058) | SID104204638 | 3.63e5 | 4.32e5 | 4.73e5 | 6.71e5 | inactive
CG3251 (GeneID 33671) | SID104180378 | 64801 | 1.08e5 | 4.07e5 | 9.60e5 | inactive
Parg (GeneID 31329) | SID104198488 | 1.49e5 | 1.94e5 | 1.06e6 | 6.89e5 | inactive
red (GeneID 41738) | SID104202534 | 7.96e5 | 5.22e5 | 9.13e5 | 7.02e5 | inactive
EbpII (GeneID 326108) | SID104184429 | 1.03e6 | 5.51e5 | 2.15e6 | 1.55e6 | inactive
EbpII (GeneID 326108) | SID104201938 | 4.90e5 | 6.64e5 | 1.51e6 | 2.24e6 | inactive
EbpII (GeneID 326108) | SID104208101 | 3.39e5 | 5.88e5 | 1.17e6 | 1.17e6 | inactive
CG16995 (GeneID 33413) | SID104180272 | 1.22e5 | 1.13e5 | 6.63e5 | 6.73e5 | inactive
ste24c + CR30461 (retired record) | SID104185431 | 2.46e5 | 3.07e5 | 3.06e5 | 4.87e5 | inactive
ste24c + CR30461 (retired record) | SID104187108 | 1.08e5 | 85808 | 1.32e6 | 1.32e6 | inactive
lin-52 (GeneID 31499) | SID104197898 | 2.95e5 | 3.42e5 | 4.25e6 | 4.35e6 | inactive
CG14186 (GeneID 40196) | SID104189977 | 40821 | 62598 | 2.73e5 | 2.81e5 | inactive
CG14186 (GeneID 40196) | SID104206629 | 5.65e5 | 6.00e5 | 1.24e6 | 1.29e6 | inactive
smal (GeneID 5740323) | SID104182110 | 1.20e5 | 1.46e5 | 1.92e6 | 1.76e6 | active
smal (GeneID 5740323) | SID104182111 | 1.67e5 | 1.14e5 | 2.03e6 | 1.24e6 | inactive
smal (GeneID 5740323) | SID104182112 | 2.01e5 | 2.03e5 | 2.25e6 | 1.53e6 | inactive
smal (GeneID 5740323) | SID104182296 | 2.37e5 | 1.48e5 | 1.88e6 | 1.66e6 | inactive
smal (GeneID 5740323) | SID104202225 | 2.36e5 | 3.57e5 | 8.16e5 | 1.07e6 | inactive
smal (GeneID 5740323) | SID104204896 | 7.40e5 | 6.10e5 | 7.64e5 | 5.28e5 | active
dila (GeneID 36010) | SID104186399 | 4.16e5 | 3.24e5 | 3.08e6 | 2.32e6 | inactive
dila (GeneID 36010) | SID104205053 | 2.64e5 | 2.12e5 | 3.32e5 | 4.22e5 | inactive
nes (GeneID 40093) | SID104191167 | 2.37e5 | 2.04e5 | 1.95e6 | 2.12e6 | inactive
CG14518 (GeneID 43421) | SID104194662 | 2.42e5 | 2.08e5 | 2.91e6 | 3.02e6 | inactive
CG14518 (GeneID 43421) | SID104206158 | 2.72e5 | 2.61e5 | 4.89e5 | 9.18e5 | inactive
